These are yes or no findings as the source states them, for the method shown. For part of these data: In cells and extracts the contact can be indirect. Some results given as binding are weak or reduced against the parent protein; the word gives no strength. For part of these data: Tags and fused reporters may be left off the sequences shown. Values belong to the molecule of their own block, whether it stands above or below them.
Assays:
FLAG-tagged UBTOR [1] = target: T1, FLAG-tagged UBTOR (UniProt Q9UPX6); test: co-IP; HEK293T cells transfected with FLAG-tagged UBTOR (or UBTOR 1-467), basal growth condition (vehicle DMSO, no PAO); lysates immunoprecipitated with anti-FLAG-M2 beads at 4°C for 4 hours, blotted for endogenous proteins
T1 sequence: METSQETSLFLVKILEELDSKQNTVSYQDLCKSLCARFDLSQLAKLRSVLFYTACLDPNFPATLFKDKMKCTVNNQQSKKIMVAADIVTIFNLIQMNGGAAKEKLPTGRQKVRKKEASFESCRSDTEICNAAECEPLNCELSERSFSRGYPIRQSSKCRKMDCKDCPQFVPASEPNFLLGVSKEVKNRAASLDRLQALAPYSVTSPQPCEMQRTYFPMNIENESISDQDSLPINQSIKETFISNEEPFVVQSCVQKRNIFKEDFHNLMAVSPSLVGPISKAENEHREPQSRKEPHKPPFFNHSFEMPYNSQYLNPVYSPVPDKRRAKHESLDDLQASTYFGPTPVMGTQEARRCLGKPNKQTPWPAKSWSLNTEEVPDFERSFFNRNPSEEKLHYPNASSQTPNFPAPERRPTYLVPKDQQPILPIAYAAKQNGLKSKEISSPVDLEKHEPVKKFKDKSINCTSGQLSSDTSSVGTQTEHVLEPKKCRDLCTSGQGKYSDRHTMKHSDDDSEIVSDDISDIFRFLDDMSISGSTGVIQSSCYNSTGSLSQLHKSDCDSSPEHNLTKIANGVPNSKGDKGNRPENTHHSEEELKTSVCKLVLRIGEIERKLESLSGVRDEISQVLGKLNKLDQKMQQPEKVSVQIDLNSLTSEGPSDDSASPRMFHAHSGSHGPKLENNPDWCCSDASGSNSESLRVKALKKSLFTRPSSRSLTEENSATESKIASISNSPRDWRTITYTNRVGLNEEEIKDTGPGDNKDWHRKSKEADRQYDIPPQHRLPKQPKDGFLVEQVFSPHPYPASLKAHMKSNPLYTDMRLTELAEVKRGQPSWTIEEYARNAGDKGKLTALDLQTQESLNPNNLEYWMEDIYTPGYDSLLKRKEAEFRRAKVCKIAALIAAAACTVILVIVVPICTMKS

Chains of the proteins cited; added tags and fusions are not shown. Lines headed by an entry give the natural chain unless they say otherwise; changes in a name come on top. A line that says so, or that is headed by a name, gives the form on record, which may keep a tag or linker. Residues count along the entry.
UniProt Q8TB45: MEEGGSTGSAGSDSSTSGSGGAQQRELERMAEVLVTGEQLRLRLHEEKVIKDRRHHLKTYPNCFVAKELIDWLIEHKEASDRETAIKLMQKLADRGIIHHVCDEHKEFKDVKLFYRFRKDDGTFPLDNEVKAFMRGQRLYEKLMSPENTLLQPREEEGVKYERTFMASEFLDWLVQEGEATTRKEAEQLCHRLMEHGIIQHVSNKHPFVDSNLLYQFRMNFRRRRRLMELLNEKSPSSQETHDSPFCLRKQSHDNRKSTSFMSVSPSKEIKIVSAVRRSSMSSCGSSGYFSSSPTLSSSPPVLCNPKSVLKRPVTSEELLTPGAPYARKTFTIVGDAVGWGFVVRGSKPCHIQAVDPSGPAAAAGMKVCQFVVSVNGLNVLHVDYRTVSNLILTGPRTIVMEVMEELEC
his/HA double tagged PDZ domain of DEPTOR: residues 330-407 of Q8TB45

[2] = target: T2, N terminal region of UBTOR (UBTOR^1-467), expressed in cells (UniProt Q9UPX6); test: as above
T2 sequence: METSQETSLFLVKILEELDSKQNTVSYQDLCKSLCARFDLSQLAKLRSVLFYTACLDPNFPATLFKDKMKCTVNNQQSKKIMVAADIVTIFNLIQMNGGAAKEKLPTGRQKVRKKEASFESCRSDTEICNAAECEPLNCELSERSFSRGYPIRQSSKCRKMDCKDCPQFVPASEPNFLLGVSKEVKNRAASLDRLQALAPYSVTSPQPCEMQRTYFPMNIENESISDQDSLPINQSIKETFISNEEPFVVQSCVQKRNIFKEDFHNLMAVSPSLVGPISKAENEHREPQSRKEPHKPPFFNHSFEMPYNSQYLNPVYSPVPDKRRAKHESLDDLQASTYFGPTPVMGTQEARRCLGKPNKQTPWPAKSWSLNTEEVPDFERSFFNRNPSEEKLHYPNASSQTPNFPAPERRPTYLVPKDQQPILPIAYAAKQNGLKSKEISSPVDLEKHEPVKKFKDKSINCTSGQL

FLAG-tagged UBTOR [3] = target: T1, FLAG-tagged UBTOR; test: co-IP; HEK293T cells transfected with FLAG-tagged UBTOR (or UBTOR 1-467), treated with 5 μM PAO for 15 min; lysates immunoprecipitated with anti-FLAG-M2 beads at 4°C for 4 hours, blotted for endogenous proteins
HA-tagged DEPTOR = HA-tagged DEPTOR (UniProt Q8TB45); test: co-IP; HA-tagged DEPTOR exogenously expressed; immunoprecipitated (anti-HA beads), blotted for endogenous UBTOR
[4] = target: his/HA double tagged PDZ domain of DEPTOR (UniProt Q8TB45); test: pull-down; purified bacterial proteins mixed; his/HA-tagged DEPTOR proteins pulled down by nickel beads, immunoblotted; both purified
[5] = target: his/HA double tagged DEPTOR (full length) (UniProt Q8TB45); test: as above

binding (FLAG-tagged UBTOR [1]): binds
binding [2]: binds
binding (FLAG-tagged UBTOR [3]): binds
Molecule: endogenous DEPTOR (from UniProt Q8TB45 1-409)

binding (HA-tagged DEPTOR): binds
B1: endogenous UBTOR (protein, UniProt Q9UPX6 1-916)
chain: METSQETSLFLVKILEELDSKQNTVSYQDLCKSLCARFDLSQLAKLRSVLFYTACLDPNFPATLFKDKMKCTVNNQQSKKIMVAADIVTIFNLIQMNGGAAKEKLPTGRQKVRKKEASFESCRSDTEICNAAECEPLNCELSERSFSRGYPIRQSSKCRKMDCKDCPQFVPASEPNFLLGVSKEVKNRAASLDRLQALAPYSVTSPQPCEMQRTYFPMNIENESISDQDSLPINQSIKETFISNEEPFVVQSCVQKRNIFKEDFHNLMAVSPSLVGPISKAENEHREPQSRKEPHKPPFFNHSFEMPYNSQYLNPVYSPVPDKRRAKHESLDDLQASTYFGPTPVMGTQEARRCLGKPNKQTPWPAKSWSLNTEEVPDFERSFFNRNPSEEKLHYPNASSQTPNFPAPERRPTYLVPKDQQPILPIAYAAKQNGLKSKEISSPVDLEKHEPVKKFKDKSINCTSGQLSSDTSSVGTQTEHVLEPKKCRDLCTSGQGKYSDRHTMKHSDDDSEIVSDDISDIFRFLDDMSISGSTGVIQSSCYNSTGSLSQLHKSDCDSSPEHNLTKIANGVPNSKGDKGNRPENTHHSEEELKTSVCKLVLRIGEIERKLESLSGVRDEISQVLGKLNKLDQKMQQPEKVSVQIDLNSLTSEGPSDDSASPRMFHAHSGSHGPKLENNPDWCCSDASGSNSESLRVKALKKSLFTRPSSRSLTEENSATESKIASISNSPRDWRTITYTNRVGLNEEEIKDTGPGDNKDWHRKSKEADRQYDIPPQHRLPKQPKDGFLVEQVFSPHPYPASLKAHMKSNPLYTDMRLTELAEVKRGQPSWTIEEYARNAGDKGKLTALDLQTQESLNPNNLEYWMEDIYTPGYDSLLKRKEAEFRRAKVCKIAALIAAAACTVILVIVVPICTMKS

binding [4]: binds
binding [5]: binds
B2: GST-tagged UBTOR^1-467 (domain or fragment, UniProt Q9UPX6 1-467)
chain: METSQETSLFLVKILEELDSKQNTVSYQDLCKSLCARFDLSQLAKLRSVLFYTACLDPNFPATLFKDKMKCTVNNQQSKKIMVAADIVTIFNLIQMNGGAAKEKLPTGRQKVRKKEASFESCRSDTEICNAAECEPLNCELSERSFSRGYPIRQSSKCRKMDCKDCPQFVPASEPNFLLGVSKEVKNRAASLDRLQALAPYSVTSPQPCEMQRTYFPMNIENESISDQDSLPINQSIKETFISNEEPFVVQSCVQKRNIFKEDFHNLMAVSPSLVGPISKAENEHREPQSRKEPHKPPFFNHSFEMPYNSQYLNPVYSPVPDKRRAKHESLDDLQASTYFGPTPVMGTQEARRCLGKPNKQTPWPAKSWSLNTEEVPDFERSFFNRNPSEEKLHYPNASSQTPNFPAPERRPTYLVPKDQQPILPIAYAAKQNGLKSKEISSPVDLEKHEPVKKFKDKSINCTSGQL

— PMC6095612
